According to the supplement of paper PMC12819154, “High-throughput peptide-centric local stability assay extends protein–ligand identification to membrane proteins, tissues and bacteria” (Nature Structural & Molecular Biology, 2025):
The list shows a part of the results. Small differences around the control level are noise.

The chains behind the UniProt entries cited, without tags or fusion partners. Where a name states a change or a piece, a line headed by the entry shows the natural chain unless it says otherwise.
UniProt Q13033: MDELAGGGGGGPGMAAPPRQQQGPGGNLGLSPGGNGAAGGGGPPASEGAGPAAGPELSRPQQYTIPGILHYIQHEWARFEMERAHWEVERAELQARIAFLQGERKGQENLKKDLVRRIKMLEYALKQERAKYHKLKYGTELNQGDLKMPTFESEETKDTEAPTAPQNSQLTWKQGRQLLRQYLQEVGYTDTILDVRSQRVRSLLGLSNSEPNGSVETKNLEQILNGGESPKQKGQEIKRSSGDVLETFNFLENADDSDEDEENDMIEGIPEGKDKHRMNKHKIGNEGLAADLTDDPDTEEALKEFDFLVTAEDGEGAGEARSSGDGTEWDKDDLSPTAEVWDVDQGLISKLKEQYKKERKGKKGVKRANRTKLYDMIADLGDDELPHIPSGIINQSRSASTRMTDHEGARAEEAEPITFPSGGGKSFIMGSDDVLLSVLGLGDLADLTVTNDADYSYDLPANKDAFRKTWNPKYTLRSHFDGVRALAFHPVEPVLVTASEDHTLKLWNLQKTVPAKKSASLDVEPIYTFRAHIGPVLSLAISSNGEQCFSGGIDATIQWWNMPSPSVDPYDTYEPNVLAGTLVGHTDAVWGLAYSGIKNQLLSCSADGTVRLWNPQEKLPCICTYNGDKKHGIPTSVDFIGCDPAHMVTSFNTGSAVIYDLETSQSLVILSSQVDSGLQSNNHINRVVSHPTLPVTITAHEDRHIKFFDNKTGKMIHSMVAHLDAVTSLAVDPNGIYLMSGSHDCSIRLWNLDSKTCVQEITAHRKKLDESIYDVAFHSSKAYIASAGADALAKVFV
UniProt Q03431: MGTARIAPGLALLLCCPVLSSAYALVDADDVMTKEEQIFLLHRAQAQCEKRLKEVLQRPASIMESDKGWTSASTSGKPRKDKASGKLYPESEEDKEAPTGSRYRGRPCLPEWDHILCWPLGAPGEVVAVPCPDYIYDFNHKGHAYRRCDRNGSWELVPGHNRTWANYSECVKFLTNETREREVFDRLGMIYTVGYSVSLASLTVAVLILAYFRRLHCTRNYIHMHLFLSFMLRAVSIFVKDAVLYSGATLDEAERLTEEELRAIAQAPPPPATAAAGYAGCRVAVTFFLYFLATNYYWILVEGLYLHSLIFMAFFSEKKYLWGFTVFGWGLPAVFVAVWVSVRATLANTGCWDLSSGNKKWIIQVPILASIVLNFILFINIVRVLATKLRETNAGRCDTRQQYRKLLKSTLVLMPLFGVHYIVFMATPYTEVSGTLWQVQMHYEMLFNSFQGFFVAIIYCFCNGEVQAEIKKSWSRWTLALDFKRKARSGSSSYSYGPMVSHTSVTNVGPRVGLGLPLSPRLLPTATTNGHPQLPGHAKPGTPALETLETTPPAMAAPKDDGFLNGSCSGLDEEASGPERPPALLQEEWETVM
UniProt Q00653: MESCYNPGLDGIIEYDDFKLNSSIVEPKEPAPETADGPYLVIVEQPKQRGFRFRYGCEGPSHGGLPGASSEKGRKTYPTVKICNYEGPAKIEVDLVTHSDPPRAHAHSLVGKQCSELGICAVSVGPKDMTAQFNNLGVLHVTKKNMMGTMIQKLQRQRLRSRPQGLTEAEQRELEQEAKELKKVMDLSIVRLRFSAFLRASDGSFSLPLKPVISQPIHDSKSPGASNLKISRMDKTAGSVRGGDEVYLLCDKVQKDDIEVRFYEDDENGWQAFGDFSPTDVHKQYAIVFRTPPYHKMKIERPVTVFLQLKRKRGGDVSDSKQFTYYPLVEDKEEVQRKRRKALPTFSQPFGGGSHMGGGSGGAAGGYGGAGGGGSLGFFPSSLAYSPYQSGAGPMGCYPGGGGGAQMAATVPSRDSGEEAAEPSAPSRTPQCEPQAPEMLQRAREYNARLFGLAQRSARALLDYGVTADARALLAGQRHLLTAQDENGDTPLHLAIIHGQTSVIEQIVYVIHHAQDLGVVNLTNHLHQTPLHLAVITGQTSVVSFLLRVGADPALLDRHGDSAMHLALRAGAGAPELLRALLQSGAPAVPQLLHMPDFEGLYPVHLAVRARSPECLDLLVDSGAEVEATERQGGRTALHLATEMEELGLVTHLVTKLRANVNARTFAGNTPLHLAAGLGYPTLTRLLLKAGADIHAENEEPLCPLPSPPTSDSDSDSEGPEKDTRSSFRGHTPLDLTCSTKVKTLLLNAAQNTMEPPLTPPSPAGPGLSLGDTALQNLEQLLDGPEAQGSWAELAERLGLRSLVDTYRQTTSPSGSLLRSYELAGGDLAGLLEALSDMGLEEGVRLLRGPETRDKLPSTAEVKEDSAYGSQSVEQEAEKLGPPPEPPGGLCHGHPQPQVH
UniProt Q05BQ5, whole entry: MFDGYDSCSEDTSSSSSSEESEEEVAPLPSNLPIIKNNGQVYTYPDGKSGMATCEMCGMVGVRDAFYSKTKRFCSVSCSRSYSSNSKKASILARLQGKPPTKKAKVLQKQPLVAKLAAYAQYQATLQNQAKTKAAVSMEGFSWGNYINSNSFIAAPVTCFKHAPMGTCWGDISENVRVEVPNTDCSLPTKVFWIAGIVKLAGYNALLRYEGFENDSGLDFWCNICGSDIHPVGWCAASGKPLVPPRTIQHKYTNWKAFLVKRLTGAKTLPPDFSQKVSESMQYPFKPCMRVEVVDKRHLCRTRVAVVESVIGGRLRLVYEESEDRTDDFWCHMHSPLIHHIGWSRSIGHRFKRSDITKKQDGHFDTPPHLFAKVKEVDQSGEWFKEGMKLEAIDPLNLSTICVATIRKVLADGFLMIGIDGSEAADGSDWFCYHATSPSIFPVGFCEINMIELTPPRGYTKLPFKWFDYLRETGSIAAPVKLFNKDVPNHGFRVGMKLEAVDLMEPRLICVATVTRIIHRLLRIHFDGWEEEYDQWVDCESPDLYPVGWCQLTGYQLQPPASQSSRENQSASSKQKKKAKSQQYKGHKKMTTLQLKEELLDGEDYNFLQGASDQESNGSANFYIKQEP
UniProt Q00765: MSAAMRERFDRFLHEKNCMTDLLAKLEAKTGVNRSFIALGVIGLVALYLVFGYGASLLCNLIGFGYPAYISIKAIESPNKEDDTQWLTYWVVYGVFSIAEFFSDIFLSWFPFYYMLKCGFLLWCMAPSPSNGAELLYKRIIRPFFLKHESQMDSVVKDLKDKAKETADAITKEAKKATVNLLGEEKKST
UniProt Q03169: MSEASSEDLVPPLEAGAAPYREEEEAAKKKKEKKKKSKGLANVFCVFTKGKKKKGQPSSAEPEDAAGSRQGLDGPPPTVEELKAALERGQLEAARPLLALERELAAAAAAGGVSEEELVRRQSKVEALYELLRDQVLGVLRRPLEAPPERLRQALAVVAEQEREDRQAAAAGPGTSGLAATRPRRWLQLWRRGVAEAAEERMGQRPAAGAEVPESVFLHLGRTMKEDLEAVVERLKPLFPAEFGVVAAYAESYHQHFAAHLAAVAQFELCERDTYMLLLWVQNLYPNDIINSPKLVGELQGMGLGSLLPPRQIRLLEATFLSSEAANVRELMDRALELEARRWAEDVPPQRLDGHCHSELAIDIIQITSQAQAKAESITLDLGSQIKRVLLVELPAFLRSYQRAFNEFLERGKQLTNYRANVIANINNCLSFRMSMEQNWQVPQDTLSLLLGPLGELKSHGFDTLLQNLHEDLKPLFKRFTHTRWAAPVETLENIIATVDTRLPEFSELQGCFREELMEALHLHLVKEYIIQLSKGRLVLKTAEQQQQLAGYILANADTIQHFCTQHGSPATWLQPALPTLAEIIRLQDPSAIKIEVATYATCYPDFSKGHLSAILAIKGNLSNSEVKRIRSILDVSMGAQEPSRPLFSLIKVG
UniProt Q01196, whole entry: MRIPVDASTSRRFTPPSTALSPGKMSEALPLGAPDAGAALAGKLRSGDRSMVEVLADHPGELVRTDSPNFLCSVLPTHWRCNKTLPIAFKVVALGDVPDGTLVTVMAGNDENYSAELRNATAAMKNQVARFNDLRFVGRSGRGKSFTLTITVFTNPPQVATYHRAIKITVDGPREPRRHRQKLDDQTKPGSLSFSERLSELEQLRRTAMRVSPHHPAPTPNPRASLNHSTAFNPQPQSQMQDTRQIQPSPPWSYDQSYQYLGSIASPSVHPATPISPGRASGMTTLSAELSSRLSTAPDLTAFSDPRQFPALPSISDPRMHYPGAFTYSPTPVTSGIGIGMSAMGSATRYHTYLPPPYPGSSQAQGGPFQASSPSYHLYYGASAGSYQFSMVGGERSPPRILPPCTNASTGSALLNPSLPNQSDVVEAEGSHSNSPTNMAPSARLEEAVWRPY
UniProt P98170, whole entry: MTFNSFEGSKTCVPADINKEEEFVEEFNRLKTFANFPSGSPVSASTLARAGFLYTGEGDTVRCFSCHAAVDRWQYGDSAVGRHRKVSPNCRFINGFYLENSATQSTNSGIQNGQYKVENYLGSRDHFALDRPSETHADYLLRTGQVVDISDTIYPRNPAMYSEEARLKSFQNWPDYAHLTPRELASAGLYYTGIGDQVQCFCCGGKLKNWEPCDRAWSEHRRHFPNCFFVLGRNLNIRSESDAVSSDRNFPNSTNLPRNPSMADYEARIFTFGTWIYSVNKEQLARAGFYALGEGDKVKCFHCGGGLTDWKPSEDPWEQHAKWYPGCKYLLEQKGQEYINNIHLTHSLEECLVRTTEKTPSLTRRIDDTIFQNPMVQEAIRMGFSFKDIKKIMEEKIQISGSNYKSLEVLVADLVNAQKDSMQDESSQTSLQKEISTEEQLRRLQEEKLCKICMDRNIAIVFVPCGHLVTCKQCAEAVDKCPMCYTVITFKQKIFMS
UniProt Q08945, whole entry: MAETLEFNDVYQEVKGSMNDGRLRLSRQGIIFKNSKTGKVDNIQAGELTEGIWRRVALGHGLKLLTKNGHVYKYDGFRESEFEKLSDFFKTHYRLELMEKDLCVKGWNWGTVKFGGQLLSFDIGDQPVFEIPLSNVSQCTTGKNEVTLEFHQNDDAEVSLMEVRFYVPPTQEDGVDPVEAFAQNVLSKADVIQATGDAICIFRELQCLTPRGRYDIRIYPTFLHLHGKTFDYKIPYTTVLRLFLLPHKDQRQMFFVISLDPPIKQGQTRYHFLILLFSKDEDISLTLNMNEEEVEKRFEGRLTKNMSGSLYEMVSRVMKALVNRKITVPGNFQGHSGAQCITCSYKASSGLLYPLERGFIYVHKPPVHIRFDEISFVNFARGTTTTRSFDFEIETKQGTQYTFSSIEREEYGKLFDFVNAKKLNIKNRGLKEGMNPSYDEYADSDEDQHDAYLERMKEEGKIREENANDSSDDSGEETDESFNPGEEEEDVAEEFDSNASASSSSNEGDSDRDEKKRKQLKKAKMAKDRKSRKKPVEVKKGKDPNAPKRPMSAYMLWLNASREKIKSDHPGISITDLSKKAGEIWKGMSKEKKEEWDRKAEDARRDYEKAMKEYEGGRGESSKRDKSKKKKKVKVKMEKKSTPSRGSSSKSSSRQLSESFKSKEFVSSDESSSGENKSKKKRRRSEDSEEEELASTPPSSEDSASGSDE
UniProt Q01650: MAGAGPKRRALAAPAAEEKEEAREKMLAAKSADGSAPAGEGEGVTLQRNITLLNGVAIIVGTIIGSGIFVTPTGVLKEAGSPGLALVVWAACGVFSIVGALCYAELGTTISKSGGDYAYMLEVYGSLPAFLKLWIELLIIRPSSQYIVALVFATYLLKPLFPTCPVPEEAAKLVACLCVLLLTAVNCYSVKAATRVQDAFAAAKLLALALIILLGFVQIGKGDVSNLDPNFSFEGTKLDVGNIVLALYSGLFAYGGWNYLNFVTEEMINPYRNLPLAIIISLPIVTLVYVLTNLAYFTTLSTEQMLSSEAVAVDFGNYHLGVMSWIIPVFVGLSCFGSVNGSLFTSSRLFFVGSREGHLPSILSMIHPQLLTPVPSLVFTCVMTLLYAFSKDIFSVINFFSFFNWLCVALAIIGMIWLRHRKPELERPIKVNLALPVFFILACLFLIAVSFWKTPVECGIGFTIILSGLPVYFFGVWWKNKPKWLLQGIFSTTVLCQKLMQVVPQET
UniProt Q02833: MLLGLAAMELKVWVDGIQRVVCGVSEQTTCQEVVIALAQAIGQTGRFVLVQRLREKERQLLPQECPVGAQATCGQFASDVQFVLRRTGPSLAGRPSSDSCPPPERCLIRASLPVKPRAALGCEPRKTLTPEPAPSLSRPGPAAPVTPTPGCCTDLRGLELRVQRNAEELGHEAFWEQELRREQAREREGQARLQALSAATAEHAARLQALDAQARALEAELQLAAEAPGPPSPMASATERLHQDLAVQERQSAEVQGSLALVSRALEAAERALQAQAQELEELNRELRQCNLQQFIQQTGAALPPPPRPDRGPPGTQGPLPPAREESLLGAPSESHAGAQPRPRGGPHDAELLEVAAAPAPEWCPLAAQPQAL

compound: CN[C@@H]1C[C@H]2O[C@@](C)([C@@H]1OC)n1c3ccccc3c3c4c(c5c6ccccc6n2c5c31)C(=O)NC4 [staurosporine]; assay: log2 fold change of tryptic peptide abundance, ligand vs vehicle (limited proteolysis) (log2 ratio); higher = more trypsin-susceptible (destabilized); details: ligand concentration: 20 uM; sample: K562 cleared lysate; digestion: 4 min, 22 C (HT-PELSA RT4min, Orbitrap Astral)

Target | log2 fold change
STRN3 (peptide sequence: SLLGLSNSEPNGSVETK, peptide start residue: 202) (UniProt Q13033) | -0.198
PTH1 (peptide sequence: LTEEELR, peptide start residue: 256) (UniProt Q03431) | 0.019
DGCR2 (peptide sequence: IESLIGANLHHFNLGR, peptide start residue: 379) (UniProt P98153) | -0.308
NFKB2 (peptide sequence: QCSELGICAVSVGPK, peptide start residue: 113) (UniProt Q00653) | -0.743
DMWD (peptide sequence: AEEAATAAGADGER, peptide start residue: 383) (UniProt Q09019) | -0.524
MBTD1 (peptide sequence: VFWIAGIVK, peptide start residue: 191) (UniProt Q05BQ5) | -0.278
REEP5 (peptide sequence: AKETADAITK, peptide start residue: 163) (UniProt Q00765) | 0.302
VAC14 (peptide sequence: AGLLNTSGTK, peptide start residue: 503) (UniProt Q08AM6) | -0.147
IK (peptide sequence: AVGPTAEADKSAAEK, peptide start residue: 128) (UniProt Q13123) | -0.163
TNFAIP2 (peptide sequence: KGQPSSAEPEDAAGSR, peptide start residue: 54) (UniProt Q03169) | -0.321
RUNX1 (peptide sequence: LSELEQLR, peptide start residue: 198) (UniProt Q01196) | 0.661
GTF2B (peptide sequence: VIDVGSEWR, peptide start residue: 45) (UniProt Q00403) | -0.18
XIAP (peptide sequence: NPAMYSEEAR, peptide start residue: 157) (UniProt P98170) | 0.525
CREM (peptide sequence: KILNELSSDVPGVPK, peptide start residue: 123) (UniProt Q03060) | -0.2
SSRP1 (peptide sequence: IKSDHPGISITDLSKK, peptide start residue: 565) (UniProt Q08945) | 0.237
SLC7A5 (peptide sequence: ALAAPAAEEKEEAREK, peptide start residue: 10) (UniProt Q01650) | 0.146
RASSF7 (peptide sequence: LHQDLAVQER, peptide start residue: 241) (UniProt Q02833) | 0.24
ARHGAP5 (peptide sequence: IQITILSYHSSIGVR, peptide start residue: 829) (UniProt Q13017) | 0.415

A different layout for some results above:
Target,log2 fold change
"IK (peptide sequence: AVGPTAEADKSAAEK, peptide start residue: 128) (UniProt Q13123)",-0.163
"RASSF7 (peptide sequence: LHQDLAVQER, peptide start residue: 241) (UniProt Q02833)",0.24
